Here are results for 2 molecules from patent EP4685489A2 (Roche Diagnostics GmbH, dated 2026).

The chains behind the UniProt entries cited, without tags or fusion partners. Where a name states a change or a piece, a line headed by the entry shows the natural chain unless it says otherwise.
UniProt Q14896: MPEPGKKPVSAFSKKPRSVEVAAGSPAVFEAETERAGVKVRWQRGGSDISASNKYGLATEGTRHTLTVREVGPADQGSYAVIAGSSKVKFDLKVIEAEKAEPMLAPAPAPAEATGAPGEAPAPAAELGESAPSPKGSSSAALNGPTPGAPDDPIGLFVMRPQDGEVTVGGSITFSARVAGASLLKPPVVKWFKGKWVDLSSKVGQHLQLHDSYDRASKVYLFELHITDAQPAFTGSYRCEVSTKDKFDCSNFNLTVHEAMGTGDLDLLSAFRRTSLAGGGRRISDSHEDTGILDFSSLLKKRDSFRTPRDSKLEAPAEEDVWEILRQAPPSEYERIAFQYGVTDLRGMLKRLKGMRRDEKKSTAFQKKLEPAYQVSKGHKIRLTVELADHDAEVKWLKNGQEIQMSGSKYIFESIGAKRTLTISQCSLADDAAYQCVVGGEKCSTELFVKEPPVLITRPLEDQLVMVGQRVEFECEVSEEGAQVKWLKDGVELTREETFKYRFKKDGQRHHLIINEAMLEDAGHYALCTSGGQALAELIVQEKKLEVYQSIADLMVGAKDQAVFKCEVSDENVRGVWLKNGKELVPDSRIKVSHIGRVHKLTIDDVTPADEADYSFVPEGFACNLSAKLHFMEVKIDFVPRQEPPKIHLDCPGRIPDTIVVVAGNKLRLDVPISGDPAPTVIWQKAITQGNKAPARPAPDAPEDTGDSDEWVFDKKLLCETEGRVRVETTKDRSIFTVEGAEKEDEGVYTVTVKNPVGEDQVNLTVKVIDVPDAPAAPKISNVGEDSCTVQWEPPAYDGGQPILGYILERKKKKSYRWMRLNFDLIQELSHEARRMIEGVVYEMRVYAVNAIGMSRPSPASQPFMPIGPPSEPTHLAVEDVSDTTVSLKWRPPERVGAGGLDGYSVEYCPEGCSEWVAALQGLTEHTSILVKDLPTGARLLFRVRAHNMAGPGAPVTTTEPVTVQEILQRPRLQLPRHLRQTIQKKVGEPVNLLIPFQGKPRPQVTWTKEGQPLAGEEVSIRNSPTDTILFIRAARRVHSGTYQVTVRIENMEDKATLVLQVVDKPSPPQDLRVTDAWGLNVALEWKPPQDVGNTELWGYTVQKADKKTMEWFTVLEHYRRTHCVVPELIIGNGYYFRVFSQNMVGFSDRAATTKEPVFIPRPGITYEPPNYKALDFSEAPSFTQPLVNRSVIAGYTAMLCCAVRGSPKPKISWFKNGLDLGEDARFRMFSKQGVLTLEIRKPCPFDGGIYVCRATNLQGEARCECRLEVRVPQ

The target of test [1] is recombinant MYBPC3, monomeric, biotinylated via Avi-tag (human) (UniProt Q14896). Briefly: screening ELISA on biotinylated MYBPC3 and SPR kinetic screening of hybridoma supernatants.
For test [2] the target is unchanged. Briefly: screening ELISA on biotinylated MYBPC3 and SPR kinetic screening of B-cell supernatants.

These are yes or no findings as the source states them, for the method shown. Some entries that bind do so weakly or less than the wild type.

B1: monoclonal antibody 4.1.1 (antibody, V domains shown)
VH: QVQLKESGPGLVAPSQSLSITCTVSGFSLTGYGVNWVRQPPGKGLEWLGMIWGDGSTDYNSVYKSRLSISKDNSKSQVFLKMNSLQTDDTARYYCARRDTGGASMDYWGQGTSVTVSS
VL: DILMTQSPAILSVSPGERVSFSCRASQNIGTNMHWYQQRTNGSPRLLIRFASESFSGIPSRFSGTGSGTDFTLRINSVESEDIADYYCQQSYNWPFTFGAGTKLELK
notes: Mouse hybridoma monoclonal IgG; Biotinylated, DIG-labelled or ruthenylated in the sandwich assays; also called M-4.1.1; M.4.1.1
With B1, the binding result in test [1] is “binds”.

B2: monoclonal antibody 7B5 (antibody, V domains shown)
VH: QEQLEESGGGLVKPGGTLTLTCKVSGFDFSSGYDMCWVRQAPGKGLESIACIGSSSASTWYANWVNGRFTVSRSTSLNTVDLKMTSLTVADTATYFCARESSTEYYYNLWGPGTLVTVSS
VL: DIVMTQTPASVEAAVGGTVTIKCQASQSIGNALAWYQQKPGQPPKLLIYSTSYLPSGVPSRFKGGGSGAEYTLTISDLECADAATYYCQSYYVSTSSSDRSSFGGGTEVVVK
notes: Rabbit B-cell derived monoclonal IgG, expressed recombinantly in HEK293 cells; Biotinylated, DIG-labelled or ruthenylated in the sandwich assays; also called mAB 7B5; MAK<MYPBC3<rK-7B5-IgG(SPA)
Consider B2, for which the binding entry in test [2] is on record as “binds”.
